Results published in US11827897B2, “Agricultural compositions and related methods” (Flagship Pioneering Innovations VI, LLC, priority 2018, dated 2023).
Not every detail of the peptide structures is certain; ends, links or a residue may be inferred. Where a SMILES comes first, the peptide text is derived from it.

System: Zea mays BMS cells
Test: PMP production by Zea mays BMS cell culture after elicitation (NanoFCM)
Assay type: cell-based
Conditions: 1 μM flg22, 96 hours
Description: Zea mays, Black Mexican Sweet (BMS) cells were purchased from the ABRC. BMS cells were grown in Murashige and Skoog basal medium pH 5.8, containing 4.3 g/L Murashige and Skoog Basal Salt Mixture (Sigma M5524), 2% sucrose (S0389, Millipore Sigma), 2 mg/L 2,4-dichlorophenoxyacetic acid (D7299, Millipore Sigma), 250 ug/L thiamine HCL (V-014, Millipore Sigma) and a 1× MS vitamin mix solution in ddH2O. The 1× vitamin mix solution contained niacin (N0761-100G, Millipore Sigma), pyroxidine hydrochloride (P6280-25G, Millipore Sigma), D-pantothenic acid hemicalcium salt (P5155-100G, Millipore Sigma), L-Asparagine (A4159-25G, Millipore Sigma), and myo-inositol (17508-100G, Millipore Sigma) at respective final concentrations of 1.3 mg/L, 250 μg/L, 250 μg/L, 130 mg/L, and 200 mg/L. Cells were grown in 1 L vented conical sterile flasks in dark conditions at 24° C. with agitation (110 rpm). For experiments, BMS cells were grown until cells were at a packed cell volume (PCV) of 20%. The PCV estimates cell density and is defined as the volume of cells divided by the total volume of the cell culture aliquot. The Packed Cell Volume is expressed as a percentage. The PCV was determined as follows: 5 mL of BMS cell suspension was centrifuged for 5 min at 3900 rpm, and the volume of the cell pellet was determined.
To determine the effect of the flagellin peptide flg22 ([…] (SEQ ID NO: 14) (AnaSpec AS-62633) on PMP production by Zea mays BMS cells, 200 mL of BMS cell culture were prepared as described above. A cytotoxicity assay was carried out to determine the range of concentrations of flg22 that would not affect apparent BMS cell growth, and the flg22 concentration of 1 μM was determined to be compatible with cell growth. 30 mL of BMS cell suspension was distributed in individual 125 mL conical culture vented-flasks. In parallel, 89.55 mL of fresh media was mixed with 450 μL of 400 μM flg22 peptide suspension prepared in ultrapure sterile water to a final concentration of 2 μM. For the control conditions, 450 μL of ultrapure sterile water was added instead of flg22. […]

`CC[C@H](C)[C@H](NC(=O)[C@H](CCC(N)=O)NC(=O)[C@H](CC(C)C)NC(=O)CNC(=O)[C@H](C)NC(=O)[C@H](C)NC(=O)[C@H](CC(=O)O)NC(=O)[C@H](CC(=O)O)NC(=O)[C@H](CCCCN)NC(=O)[C@H](C)NC(=O)[C@H](CO)NC(=O)[C@H](CC(N)=O)NC(=O)[C@@H](NC(=O)[C@H](CCCNC(=N)N)NC(=O)[C@H](CO)NC(=O)CNC(=O)[C@@H](NC(=O)[C@H](CO)NC(=O)[C@H](CC(C)C)NC(=O)[C@H](CCCNC(=N)N)NC(=O)[C@@H](N)CCC(N)=O)[C@@H](C)O)[C@@H](C)CC)C(=O)N[C@@H](C)C(=O)O` [flg22] (H-QRLSTGSRINSAKDDAAGLQIA-OH) was tested, and the “effect on production of PMPs by BMS cells in culture” value was “stimulates the production of PMPs”, the PMP concentration (BMS cells, average of triplicates, control 1.2×10^11 PMPs/mL) was 1.59×10^11 PMP/mL and the “mean PMP size” value (BMS cells, control 88.7±15 nm) was 86.6±15 nm.
